Results on one sequence are retold here after patent US20150191730A1, “APTAMER-TARGETTED ANTIGEN DELIVERY” (ALBERT EINSTEIN COLLEGE OF MEDICINE OF YESHIVA UNIVERSITY, published 2015).

The chains behind the UniProt entries cited, without tags or fusion partners. Residues count along the entry.
UniProt Q60767, 28-1723: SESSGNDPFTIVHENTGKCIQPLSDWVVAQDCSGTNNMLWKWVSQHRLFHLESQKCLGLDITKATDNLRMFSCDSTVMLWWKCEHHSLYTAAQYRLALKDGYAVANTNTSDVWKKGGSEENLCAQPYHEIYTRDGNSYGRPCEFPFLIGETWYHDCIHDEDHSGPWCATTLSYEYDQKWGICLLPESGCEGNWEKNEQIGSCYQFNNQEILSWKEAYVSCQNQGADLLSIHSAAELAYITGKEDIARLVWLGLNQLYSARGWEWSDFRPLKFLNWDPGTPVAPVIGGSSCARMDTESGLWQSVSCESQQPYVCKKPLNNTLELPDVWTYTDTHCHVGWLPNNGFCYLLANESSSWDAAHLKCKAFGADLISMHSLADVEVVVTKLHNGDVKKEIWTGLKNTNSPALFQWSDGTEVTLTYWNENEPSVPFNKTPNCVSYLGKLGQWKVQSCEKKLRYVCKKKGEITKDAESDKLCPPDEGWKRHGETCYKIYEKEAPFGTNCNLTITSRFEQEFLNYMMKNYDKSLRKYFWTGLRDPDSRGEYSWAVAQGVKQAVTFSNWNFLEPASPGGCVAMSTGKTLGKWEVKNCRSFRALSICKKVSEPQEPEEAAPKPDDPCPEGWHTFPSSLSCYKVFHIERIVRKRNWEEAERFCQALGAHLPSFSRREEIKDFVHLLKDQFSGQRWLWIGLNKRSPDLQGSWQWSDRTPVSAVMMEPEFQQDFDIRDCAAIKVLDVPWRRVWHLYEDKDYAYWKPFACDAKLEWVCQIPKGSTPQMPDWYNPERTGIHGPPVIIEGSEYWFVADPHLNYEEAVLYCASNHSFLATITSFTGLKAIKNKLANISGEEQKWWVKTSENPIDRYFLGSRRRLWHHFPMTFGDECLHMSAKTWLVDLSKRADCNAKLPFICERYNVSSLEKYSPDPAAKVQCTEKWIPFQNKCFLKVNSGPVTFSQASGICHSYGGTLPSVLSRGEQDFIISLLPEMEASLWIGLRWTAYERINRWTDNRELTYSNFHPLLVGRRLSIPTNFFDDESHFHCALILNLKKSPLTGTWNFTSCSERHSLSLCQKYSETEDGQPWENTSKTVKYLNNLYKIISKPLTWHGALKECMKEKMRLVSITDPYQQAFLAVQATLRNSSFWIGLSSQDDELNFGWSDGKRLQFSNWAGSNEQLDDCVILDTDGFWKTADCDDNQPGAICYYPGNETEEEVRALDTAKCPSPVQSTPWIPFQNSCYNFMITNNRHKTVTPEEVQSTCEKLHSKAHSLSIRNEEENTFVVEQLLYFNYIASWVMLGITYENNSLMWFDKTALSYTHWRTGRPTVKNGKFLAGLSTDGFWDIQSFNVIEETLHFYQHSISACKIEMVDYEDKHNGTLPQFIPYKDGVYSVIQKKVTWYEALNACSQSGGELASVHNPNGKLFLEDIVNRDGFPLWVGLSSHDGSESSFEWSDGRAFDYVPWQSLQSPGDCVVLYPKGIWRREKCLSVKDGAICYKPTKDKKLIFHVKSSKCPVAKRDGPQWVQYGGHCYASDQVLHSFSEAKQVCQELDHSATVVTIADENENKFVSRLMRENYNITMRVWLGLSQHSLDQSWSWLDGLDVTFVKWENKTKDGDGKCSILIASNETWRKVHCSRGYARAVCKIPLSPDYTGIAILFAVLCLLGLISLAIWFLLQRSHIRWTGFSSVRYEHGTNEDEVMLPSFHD

At least one result comes from cells or an extract, where the contact may be indirect. No signal at the amounts used counts as a negative. Whether high values mean tight binding is not given here for every scale.

The target in this data set is DEC205 (CD205, LY75), mouse, surface-expressed (Mus musculus) (UniProt Q60767). The experiment in a line: flow cytometry. The settings on record: 2'-F pyrimidines, 3' idT, 5' thiol, protein on the cell surface, label: Alexa Fluor 488 (5'). In general terms: A flow cytometer gives signals particle by particle.

Consider “GGCGUAGUGAUUAUGAAUCGUGUGCUAAUACACGCC [cntrl.36 (c36)]”, for which the binding result (nonspecific control, A20.Kb/mDEC205 cells, RPMI, 37 C, described as non-binding aptamer) is “no binding”. Under “uptake 100-fold lower than min.2, 3:1 streptavidin multimer, 20 nM, 1 h, counted as no binding”, this sequence had a binding signal of 39 MFI.
